Reference: the supplement of paper PMC8728848
Some of the results follow.

Tests used:
Assay in all cases: glycan array binding signal (z-score within array); higher = stronger binding
Conditions in all cases: glycan notation: IUPAC condensed, linker removed
[1] = molecular target: Gal(a1-6)Glc
Method in brief: (§1)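 The binding signal is a Z-score computed within each array. Data were drawn from 3228 arrays in the Consortium for Functional Glycomics database, restricted to those with a known protein sequence. Scores were averaged over arrays of the same protein sequence at different concentrations or buffers, and over linkers, and negative values can be taken as non-binding.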

[2] = molecular target: Gal(b1-2)Gal
Method in brief: as §1

[3] = molecular target: Gal(b1-3)Gal
Method in brief: as §1

[4] = molecular target: Gal(b1-3)Gal(b1-4)GlcNAc
Method in brief: as §1

[5] = molecular target: Gal(b1-3)GalNAc
Method in brief: as §1

[6] = molecular target: Gal(b1-3)GalNAc(a1-3)[Fuc(a1-2)]Gal(b1-4)Glc
Method in brief: as §1

[7] = molecular target: Gal(b1-3)GalNAc(a1-3)[Fuc(a1-2)]Gal(b1-4)GlcNAc
Method in brief: as §1

[8] = molecular target: Gal(b1-3)GalNAc(b1-3)Gal
Method in brief: as §1

[9] = molecular target: Gal(b1-3)GalNAc(b1-3)Gal(a1-4)Gal(b1-4)Glc
Method in brief: as §1

[10] = molecular target: Gal(b1-3)GalNAc(b1-4)Gal(b1-4)Glc
Method in brief: as §1

[11] = molecular target: Gal(b1-3)GalNAc(b1-4)[Neu5Ac(a2-3)]Gal(b1-4)Glc
Method in brief: as §1

[12] = molecular target: Gal(b1-3)GlcNAc
Method in brief: as §1

[13] = molecular target: Gal(b1-3)GlcNAc(a1-3)Gal(b1-4)GlcNAc
Method in brief: as §1

[14] = molecular target: Gal(b1-3)GlcNAc(a1-6)Gal(b1-4)GlcNAc
Method in brief: as §1

[15] = molecular target: Gal(b1-3)GlcNAc(b1-2)Man
Method in brief: as §1

[16] = molecular target: Gal(b1-3)GlcNAc(b1-2)Man(a1-3)[Gal(b1-3)GlcNAc(b1-2)Man(a1-6)]Man(b1-4)GlcNAc(b1-4)GlcNAc
Method in brief: as §1

[17] = molecular target: Gal(b1-3)GlcNAc(b1-2)Man(a1-3)[Gal(b1-3)GlcNAc(b1-2)Man(a1-6)]Man(b1-4)GlcNAc(b1-4)[Fuc(a1-6)]GlcNAc
Method in brief: as §1

[18] = molecular target: Gal(b1-3)GlcNAc(b1-2)Man(a1-3)[GlcNAc(b1-4)][Gal(b1-3)GlcNAc(b1-2)Man(a1-6)]Man(b1-4)GlcNAc(b1-4)GlcNAc
Method in brief: as §1

[19] = molecular target: Gal(b1-3)GlcNAc(b1-2)[Gal(b1-3)GlcNAc(b1-6)]Man(a1-6)[Gal(b1-3)GlcNAc(b1-2)Man(a1-3)]Man(b1-4)GlcNAc(b1-4)GlcNAc
Method in brief: as §1

[20] = molecular target: Gal(b1-3)GlcNAc(b1-3)Gal(b1-3)GlcNAc
Method in brief: as §1

[21] = molecular target: Gal(b1-3)GlcNAc(b1-3)Gal(b1-4)Glc
Method in brief: as §1

[22] = molecular target: Gal(b1-3)GlcNAc(b1-3)Gal(b1-4)GlcNAc
Method in brief: as §1

[23] = molecular target: Gal(b1-3)GlcNAc(b1-3)Gal(b1-4)GlcNAc(b1-2)Man(a1-3)[Gal(b1-3)GlcNAc(b1-3)Gal(b1-4)GlcNAc(b1-2)Man(a1-6)]Man(b1-4)GlcNAc(b1-4)GlcNAc
Method in brief: as §1

[24] = molecular target: Gal(b1-3)GlcNAc(b1-3)Gal(b1-4)GlcNAc(b1-2)[Gal(b1-3)GlcNAc(b1-3)Gal(b1-4)GlcNAc(b1-6)]Man(a1-6)[Gal(b1-3)GlcNAc(b1-3)Gal(b1-4)GlcNAc(b1-2)Man(a1-3)]Man(b1-4)GlcNAc(b1-4)[Fuc(a1-6)]GlcNAc
Method in brief: as §1

[25] = molecular target: Gal(b1-3)GlcNAc(b1-3)Gal(b1-4)GlcNAc(b1-3)Gal(b1-4)GlcNAc(b1-2)[Gal(b1-3)GlcNAc(b1-3)Gal(b1-4)GlcNAc(b1-3)Gal(b1-4)GlcNAc(b1-6)]Man(a1-6)[Gal(b1-3)GlcNAc(b1-3)Gal(b1-4)GlcNAc(b1-3)Gal(b1-4)GlcNAc(b1-2)Man(a1-3)]Man(b1-4)GlcNAc(b1-4)[Fuc(a1-6)]GlcNAc
Method in brief: as §1

[26] = molecular target: Gal(b1-3)GlcNAc(b1-3)Gal(b1-4)GlcNAc(b1-6)[Gal(b1-3)GlcNAc(b1-3)]Gal(b1-4)Glc
Method in brief: as §1

[27] = molecular target: Gal(b1-3)GlcNAc(b1-3)Gal(b1-4)[Fuc(a1-3)]GlcNAc
Method in brief: as §1

[28] = molecular target: Gal(b1-3)GlcNAc(b1-3)Gal(b1-4)[Fuc(a1-3)]GlcNAc(b1-6)[Gal(b1-3)GlcNAc(b1-3)]Gal(b1-4)Glc
Method in brief: as §1

[29] = molecular target: Gal(b1-3)GlcNAc(b1-3)GalNAc
Method in brief: as §1

[30] = molecular target: Gal(b1-3)GlcNAc(b1-6)Gal(b1-4)GlcNAc
Method in brief: as §1

[31] = molecular target: Gal(b1-3)GlcNAc(b1-6)GalNAc
Method in brief: as §1

[32] = molecular target: Gal(b1-3)GlcNAc(b1-6)[Gal(b1-3)]GalNAc
Method in brief: as §1

[33] = molecular target: Gal(b1-3)GlcNAc6S
Method in brief: as §1

[34] = molecular target: Gal(b1-3)[Fuc(a1-4)]GlcNAc
Method in brief: as §1

[35] = molecular target: Gal(b1-3)[Fuc(a1-4)]GlcNAc(b1-2)Man
Method in brief: as §1

[36] = molecular target: Gal(b1-3)[Fuc(a1-4)]GlcNAc(b1-2)Man(a1-3)[Gal(b1-3)[Fuc(a1-4)]GlcNAc(b1-2)Man(a1-6)]Man(b1-4)GlcNAc(b1-4)[Fuc(a1-6)]GlcNAc
Method in brief: as §1

[37] = molecular target: Gal(b1-3)[Fuc(a1-4)]GlcNAc(b1-3)Gal(b1-3)[Fuc(a1-4)]GlcNAc
Method in brief: as §1

[38] = molecular target: Gal(b1-3)[Fuc(a1-4)]GlcNAc(b1-3)Gal(b1-4)[Fuc(a1-3)]GlcNAc
Method in brief: as §1

[39] = molecular target: Gal(b1-3)[Fuc(a1-4)]GlcNAc(b1-6)GalNAc
Method in brief: as §1

[40] = molecular target: Gal(b1-3)[GlcNAc(b1-6)]GalNAc
Method in brief: as §1

[41] = molecular target: Gal(b1-3)[Neu5Ac(a2-6)]GalNAc
Method in brief: as §1

[42] = molecular target: Gal(b1-3)[Neu5Ac(a2-6)]GlcNAc(b1-4)Gal(b1-4)Glc
Method in brief: as §1

[43] = molecular target: Gal(b1-3)[Neu5Ac(b2-6)]GalNAc
Method in brief: as §1

[44] = molecular target: Gal(b1-4)Gal
Method in brief: as §1

[45] = molecular target: Gal(b1-4)GalNAc(a1-3)[Fuc(a1-2)]Gal(b1-4)GlcNAc
Method in brief: as §1

B1: AFL6 (Aspergillus fumigatus), Q4WKJ1 (protein)
chain: MSFHLTAEDIRIEDGHRLVARLRNADGDLQDASIDLNTCLGNDNGHFQWDGVDFSHSAQDVHFAIEGGGQVPVLRAQLANQDGEFQDADVNLSERIENINGEFVFH
- glycan array binding signal (z-score) [1]: -0.589
- glycan array binding signal (z-score) [2]: 0.442
- glycan array binding signal (z-score) [3]: -0.368
- glycan array binding signal (z-score) [4]: -0.721
- glycan array binding signal (z-score) [5]: 0.233
- glycan array binding signal (z-score) [6]: -0.509
- glycan array binding signal (z-score) [7]: 0.025
- glycan array binding signal (z-score) [8]: -0.263
- glycan array binding signal (z-score) [9]: -0.089
- glycan array binding signal (z-score) [10]: 0.396
- glycan array binding signal (z-score) [11]: -0.423
- glycan array binding signal (z-score) [12]: -0.506
- glycan array binding signal (z-score) [13]: -0.204
- glycan array binding signal (z-score) [14]: 0.123
- glycan array binding signal (z-score) [15]: -0.385
- glycan array binding signal (z-score) [16]: 0.432
- glycan array binding signal (z-score) [17]: -0.051
- glycan array binding signal (z-score) [18]: -0.123
- glycan array binding signal (z-score) [19]: 0.095
- glycan array binding signal (z-score) [20]: -0.177
- glycan array binding signal (z-score) [21]: -0.333
- glycan array binding signal (z-score) [22]: -0.706
- glycan array binding signal (z-score) [23]: 0.605
- glycan array binding signal (z-score) [24]: 1.91
- glycan array binding signal (z-score) [25]: 1.46
- glycan array binding signal (z-score) [26]: -0.083
- glycan array binding signal (z-score) [27]: -0.467
- glycan array binding signal (z-score) [28]: -0.586
- glycan array binding signal (z-score) [29]: -0.714
- glycan array binding signal (z-score) [30]: -0.01
- glycan array binding signal (z-score) [31]: -0.249
- glycan array binding signal (z-score) [32]: -0.123
- glycan array binding signal (z-score) [33]: -0.189
- glycan array binding signal (z-score) [34]: -0.038
- glycan array binding signal (z-score) [35]: 0.317
- glycan array binding signal (z-score) [36]: -0.016
- glycan array binding signal (z-score) [37]: -0.509
- glycan array binding signal (z-score) [38]: -0.569
- glycan array binding signal (z-score) [39]: 0.433
- glycan array binding signal (z-score) [40]: -0.173
- glycan array binding signal (z-score) [41]: -0.262
- glycan array binding signal (z-score) [42]: 0.155
- glycan array binding signal (z-score) [43]: -0.036
- glycan array binding signal (z-score) [44]: -0.275
- glycan array binding signal (z-score) [45]: -0.572
